The text below walks through data of patent US9410958B2, “Alkyne-activated fluorogenic azide compounds and methods of use thereof” (The Regents of the University of California, priority 2014, dated 2016).

Molecules are shown by their SMILES.

The data set is described as follows: Monitoring absorbance/fluorescence during copper-catalyzed click reaction with alkyne. It counts as physicochemical.

For `COc1cc(OC)c(C2=C3C=CC(=[N+](C)C)C=C3[Si](C)(C)c3cc(N(C)C)ccc32)cc1N=[N+]=[N-]` [Compound 9-N3, 3-Azido-4,6-dimethoxy-Si-rhodamine], the “change of absorption under click reaction conditions” value is “did not change significantly”.
